This assay can be described thus: qHTS Assay to Find Inhibitors of Chronic Active B-Cell Receptor Signaling. Particulars: ABC-DLBCL IkBa-CBG/CBR reporter, luminescence ratio (green luciferase fused to IkBa over red control in TMD8 lymphoma cells), 4 h. The gist of the method:
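Cell line TMD8 (human ABC DLBCL), stably expressing tet-inducible CBG68-IkBa fusion and CBR; IMDM/0.5% FBS; cpd up to 46 uM; dox induction, 4 h, 37C/5% CO2; dual luminescence; green/red ratio; MG132 control.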

The mark [1] stands for this setting: measured here: CBR red luminescence, cell number.
Where [2] appears, read: measured here: IkBa-CBG green luminescence.

Some of the results follow. The main result of the screen is listed elsewhere. These columns were measured beside it and carry no call. Most of these compounds were active or inconclusive in the main read-out, so they are no random draw. Words in brackets tell the shape of the fitted curve; partial curves, single points and poor fits give uncertain potencies.

Take `COc1ccc(NC(=O)C(c2ccccc2)N2Cc3ccccc3C2=O)cc1` (stereo unspecified): the AC50 (usually the concentration at which the activity in the assay is half-maximal) under setting [1] was 5.01 µM [rising, full curve, poor fit].

Turning to `Cc1cc(C)c2[nH]c(=O)c(CN(Cc3ccc4c(c3)OCO4)Cc3nnnn3C3CCCC3)cc2c1`, the AC50 under setting [1] was 20.6 µM [rising, single point].

Take `COc1cc(S(=O)(=O)N2CCN(c3ccccn3)CC2)ccc1Br`: the AC50 under setting [1] was 5.62 µM [rising, single point].

For `COc1cc(Cl)c(S(=O)(=O)N2CCOCC2)cc1Cl`, the AC50 under setting [1] was 11.6 µM [rising, partial curve, poor fit].

Consider `COc1ccccc1-c1cc(C(=O)N2CCN(c3ccccc3)CC2)no1`, for which, under setting [1], the AC50 is 1.58 µM [falling, full curve].

Regarding `CCOC(=O)N1CCN(C(=O)C(C)N(c2ccccc2)S(C)(=O)=O)CC1` (stereo unspecified), the half-maximal activity concentration (AC50) under setting [1] is 3.16 µM [falling, single point].

In the case of `O=C(N[C@@H]1C/C=C\C[C@@H](CC(=O)N(CCO)Cc2ccccc2)C(=O)NC[C@H](c2ccccc2)OC1=O)OCC1c2ccccc2-c2ccccc21`, the AC50 under setting [1] is 0.92 µM [falling, full curve, poor fit].

For `COc1ccc(-c2nc3c(-c4ccccc4)cnn3cc2C)cc1F`, the AC50 under setting [1] is 1.41 µM [falling, full curve, poor fit].

As for `CC(C)(C)c1ccc(-c2noc(CCC(=O)NCC3CCCO3)n2)cc1` (stereo unspecified), the AC50 under setting [1] was 29.1 µM [falling, single point].

`CCOC(=O)c1ccc(CN2C(=O)c3ccccc3S2(=O)=O)cc1`: the AC50 under setting [1] was 31.6 µM [rising, single point].

For `OCCOCCN1CCN(C(=S)Nc2ccccc2)CC1`, the AC50 under setting [1] was 0.398 µM [rising, full curve, poor fit].

Consider `Cc1cc(C)c(-c2cc(C(=O)Nc3c(C)n(C)n(-c4ccccc4)c3=O)[nH]n2)c(O)c1`, for which the AC50 under setting [1] was 29.1 µM [falling, single point].

In the case of `O=C(N/N=C\c1ccccc1)c1ccccc1-n1cccc1`, the AC50 under setting [1] was 25.1 µM [rising, partial curve, poor fit].

For `CCc1ccc(C2=CC(c3cccc(C)c3)n3c(nc4ccccc43)N2)cc1` (stereo unspecified), the AC50 under setting [1] was 2.82 µM [falling, full curve].

As to `COc1cc(NC(=O)c2cc3cccc(OC)c3o2)cc(C(=O)Nc2cccc(C(F)(F)F)c2)c1`, the half-maximal activity concentration (AC50) under setting [1] was 7.08 µM [falling, full curve].

Take `CC(=O)n1cc(C(C[N+](=O)[O-])SCCN)c2ccccc21` (stereo unspecified): the AC50 runs as follows: under setting [1], 22.4 µM [rising, single point]; under setting [2], 28.2 µM [falling, single point].

With `CC(=O)Nc1ccc(S(=O)(=O)NCCC(=O)Nc2cccc(Cl)c2)cc1`, the AC50 under setting [1] was 3.55 µM [falling, single point].

With `O=C(O)C1CC=CCC1C(=O)c1ccccc1` (stereo unspecified), the AC50 under setting [1] was 2.31 µM [rising, partial curve, poor fit].

In the case of `Cc1cc(C)cc(-n2nnnc2SCC(=O)Nc2cccc(NC(=O)c3ccco3)c2)c1`, the AC50 under setting [1] was 4.47 µM [falling, partial curve].

As for `CC(C)N(Cc1ccccc1)C(=O)COc1ccccc1`, the AC50 under setting [1] was 35.5 µM [rising, single point].

Regarding `CC1=C(C(=O)OC2CCCC2)C(c2ccc(C)o2)C2=C(CC(c3cccs3)CC2=O)N1` (stereo unspecified), the AC50 under setting [1] was 0.164 µM [falling, full curve, poor fit].

As to `COc1cccc(NC(=S)N(CCCN2CCCC2)Cc2cccn2Cc2ccc(Cl)cc2)c1`, the AC50 under setting [1] is 12.6 µM [falling, partial curve, poor fit].

As to `O=S(=O)(Nc1ccccc1)c1ccc(NS(=O)(=O)c2cccs2)cc1`, under setting [1], the AC50 was 17.8 µM [rising, partial curve].

With `COc1ccccc1NC(=O)CSc1nnnn1-c1ccccc1OC`, the AC50 under setting [1] is 12.6 µM [falling, partial curve].

As for `CCNC(=O)N1CCN(CCCC(c2ccc(F)cc2)c2ccc(F)cc2)CC1`, under setting [1], the AC50 was 29.1 µM [falling, single point].

In the case of `C/C(Cn1nnc([N+](=O)[O-])n1)=N\NC(=O)c1ccccc1Cl`, the AC50 under setting [1] is 10 µM [falling, partial curve].

For `CCCNC(=O)CN(CCc1ccccc1)S(C)(=O)=O`, the AC50 under setting [1] is 0.0651 µM [falling, full curve, poor fit].

Consider `CCCCN(C)CC(O)Cn1cc(/C=C/C(=O)c2cccs2)c2ccccc21` (stereo unspecified), for which, under setting [1], the AC50 is 11.6 µM [falling, partial curve, poor fit].

Take `NS(=O)(=O)c1ccc(NC(=O)COC(=O)CN2C(=O)C3CC=CCC3C2=O)cc1` (stereo unspecified): the AC50 under setting [1] was 0.0058 µM [rising, full curve, poor fit].

In the case of `Cc1ccccc1C(=O)NC(C)C1CC2CCC1C2` (stereo unspecified), under setting [1], the AC50 was 35.5 µM [rising, single point].

As for `Cc1ccccc1Cn1ccc(NC(=O)c2cc3ncc(Br)cn3n2)n1`, the AC50 under setting [1] was 12.6 µM [falling, partial curve].

For the compound `CCOC(=O)C1=C(COC(=O)/C=C/c2cccc(OC)c2OC)NC(=O)NC1C` (stereo unspecified), the AC50 under setting [1] was 11.2 µM [falling, single point].

For the compound `CCc1cc(C(c2ccc(OC)c(OC)c2)N2CCOCC2)c(NC(=O)c2ccccc2)s1` (stereo unspecified), the AC50 under setting [1] was 29.1 µM [falling, single point].

As for `CCc1ccccc1Nc1nc(N)nc(CSc2nnc3ccccn23)n1`, under setting [1], the AC50 was 3.55 µM [rising, single point].

As to `COC(=O)CCC(=O)Oc1ccc(OC(=O)CCC(=O)OC)cc1`, under setting [1], the AC50 was 16.4 µM [falling, partial curve].

On to `CCc1cc(C(=O)NNC(=S)NCc2ccccc2)cs1`, for which the AC50 under setting [1] is 15.8 µM [falling, partial curve] and the AC50 under setting [2] is 17.8 µM [rising, partial curve, poor fit].

Regarding `O=C(Nc1ccccc1Cl)c1ccc(F)c(S(=O)(=O)NCc2ccc(Cl)c(Cl)c2)c1`, the AC50 under setting [1] was 25.1 µM [falling, single point].

For `CCOC(=O)Cc1csc(N)n1`, under setting [1], the AC50 is 18.4 µM [falling, partial curve, poor fit].

Consider `O=C(O)CCC(=O)c1ccc2ccc3cccc4ccc1c2c34`, for which the AC50 under setting [1] was 0.708 µM [falling, full curve] and the AC50 under setting [2] is 12.6 µM [rising, single point].

Regarding `CCCC(=O)c1ccc(N2CCOCC2)c(F)c1`, under setting [1], the AC50 is 14.1 µM [rising, single point].

Turning to `Cc1c(C=O)c2ccccn2c1C(=O)c1ccc(F)cc1`, the AC50 under setting [1] was 5.62 µM [rising, partial curve, poor fit].

On to `COc1ccc([C@@H]2C[C@H]3CN(Cc4ccccc4OC)C(=O)[C@]34CCCN24)cc1C`, for which, under setting [1], the half-maximal activity concentration (AC50) was 2.82 µM [rising, partial curve, poor fit].

In the case of `Cc1ccc(S(=O)(=O)N(CC(=O)N2CCOCC2)c2ccc(Br)cc2)cc1`, the AC50 under setting [1] was 8.91 µM [falling, partial curve, poor fit].

Turning to `CCN(CC)CCC(=O)N1c2ccccc2CCc2ccc(NC(=O)OC)cc21`, the AC50 under setting [1] is 11.2 µM [falling, partial curve].

On to `O=C(Nc1nc(-c2cc(F)ccc2F)cs1)C1=COCCO1`, for which the AC50 under setting [1] was 0.259 µM [rising, partial curve, poor fit].

Consider `CCC(CC)C(=O)N1CC(=O)Nc2ccc(C)cc2C1c1ccccc1` (stereo unspecified), for which the AC50 was 35.5 µM [falling, single point] under setting [1] and 35.5 µM [rising, partial curve, poor fit] under setting [2].

`COC1=C(OC)C(=O)C(CCCCCCCCCCO)=C(C)C1=O`: under setting [1], the AC50 was 14.1 µM [falling, partial curve].

`Cc1sc2nc(CN3CCOCC3)[nH]c(=S)c2c1C`: the concentration at half-maximal activity (AC50) under setting [1] was 22.4 µM [rising, partial curve, poor fit].

Turning to `CCCn1c(=N)n(CC(=O)c2ccco2)c2ccccc21`, the AC50 under setting [2] was 25.1 µM [rising, partial curve, poor fit].

In the case of `COC(=O)CC1=C(C(=O)OC)C(c2cccs2)C(C#N)=C(N)O1` (stereo unspecified), the AC50 under setting [1] is 8.91 µM [falling, partial curve].

`Cc1cc(Nc2cccc([N+](=O)[O-])c2)c2cccc(C)c2n1`: the AC50 under setting [1] is 31.6 µM [falling, single point].

Take `CC(=O)c1c(C)[nH]c(C(=O)CSc2nnc(C3CCCCC3)n2N)c1C`: the AC50 under setting [1] is 29.1 µM [falling, single point].

As to `Cn1cc(S(=O)(=O)NC[C@H]2O[C@@H](n3cnc4c(N)ncnc43)[C@H](O)[C@@H]2O)cn1`, the AC50 under setting [1] is 23.1 µM [rising, single point].

Take `Cc1ccccc1N1CCN(C2CCCN(C(=O)CN3CCCC3=O)C2)CC1` (stereo unspecified): the AC50 under setting [1] was 3.55 µM [falling, single point].

For the compound `O=C(c1scc2c1CCCC2)N1CCCCC1`, the AC50 under setting [1] is 29.1 µM [rising, single point].

In the case of `COc1ccc(C2CC2/C(=N/OC(=O)c2cccs2)c2ccccc2)cc1` (stereo unspecified), the AC50 under setting [1] is 0.0082 µM [rising, full curve, poor fit].

Turning to `N#CC1=C2N=C(N)c3c(sc4c3CCCCC4)N2C2=C(C(=O)CCC2)C1c1ccccc1` (stereo unspecified), the AC50 under setting [1] was 1.41 µM [falling, full curve].

Regarding `O=c1c2cnn(-c3ccccc3)c2ncn1CCc1ccccc1`, the AC50 under setting [1] is 1.64 µM [rising, full curve, poor fit].

Regarding `Nc1ccc(C(=O)Nc2ccc(Nc3ccncc3)cc2)cc1`, the AC50 under setting [1] was 8.91 µM [falling, partial curve, poor fit].

On to `Cc1ccc(-c2nc(N)sc2-c2ccc(C)cc2)cc1`, for which, under setting [1], the AC50 is 22.4 µM [rising, partial curve, poor fit].

Regarding `COCC(C)n1c(C)cc(C(=O)COC(=O)CNC(=O)c2ccccc2)c1C` (stereo unspecified), the AC50 under setting [1] is 3.26 µM [rising, full curve, poor fit].

Regarding `COc1cccc(NC(=O)c2nnn(CCc3ccccc3)c2N)c1`, under setting [1], the AC50 was 29.1 µM [falling, single point].

For the origin of these results see PubChem BioAssay AID493014 (National Center for Advancing Translational Sciences (NCATS), 2011).
